Details: PAMPA, 5 h, 200 µM

O=C(O)c1cn(C2CC2)c2cc(N3CCNCC3)c(F)cc2c1=O [ciprofloxacin]
Ca (t): 5.7 µM | Cd(t): 77.4 µM | Ceq: 34.4 µM

— patent US20230330034A1, “COVALENTLY CROSS-LINKED GLYCOSYLATED MUCIN NANOPARTICLES AS SYSTEMS FOR THE DELIVERY AND RELEASE OF ACTIVE INGREDIENTS AND BIOMOLECULES” (priority 2020, published 2023)
